Values quoted from earlier work in US20070053975A1, “Ramipril formulation” (Selamine Limited, priority 2005, published 2007).

Details: cited from earlier work

## CN1C(=O)CN=C(c2ccccc2)c2cc(Cl)ccc21 [diazepam]
  Absorption in the presence of food: increased
